Article PMC8644300
No constants are given. Whether binding was seen depends on the method and setting. For some assays here: Binding seen in cells or lysates may run through a third protein. Blank lines part the entries; values can stand above or below the binder they belong to.

By UniProt entry, the sequences of proteins in these tests, tags left out. Where a name states a change or a piece, a line headed by the entry shows the natural chain unless it says otherwise.
UniProt Q9M0Z3: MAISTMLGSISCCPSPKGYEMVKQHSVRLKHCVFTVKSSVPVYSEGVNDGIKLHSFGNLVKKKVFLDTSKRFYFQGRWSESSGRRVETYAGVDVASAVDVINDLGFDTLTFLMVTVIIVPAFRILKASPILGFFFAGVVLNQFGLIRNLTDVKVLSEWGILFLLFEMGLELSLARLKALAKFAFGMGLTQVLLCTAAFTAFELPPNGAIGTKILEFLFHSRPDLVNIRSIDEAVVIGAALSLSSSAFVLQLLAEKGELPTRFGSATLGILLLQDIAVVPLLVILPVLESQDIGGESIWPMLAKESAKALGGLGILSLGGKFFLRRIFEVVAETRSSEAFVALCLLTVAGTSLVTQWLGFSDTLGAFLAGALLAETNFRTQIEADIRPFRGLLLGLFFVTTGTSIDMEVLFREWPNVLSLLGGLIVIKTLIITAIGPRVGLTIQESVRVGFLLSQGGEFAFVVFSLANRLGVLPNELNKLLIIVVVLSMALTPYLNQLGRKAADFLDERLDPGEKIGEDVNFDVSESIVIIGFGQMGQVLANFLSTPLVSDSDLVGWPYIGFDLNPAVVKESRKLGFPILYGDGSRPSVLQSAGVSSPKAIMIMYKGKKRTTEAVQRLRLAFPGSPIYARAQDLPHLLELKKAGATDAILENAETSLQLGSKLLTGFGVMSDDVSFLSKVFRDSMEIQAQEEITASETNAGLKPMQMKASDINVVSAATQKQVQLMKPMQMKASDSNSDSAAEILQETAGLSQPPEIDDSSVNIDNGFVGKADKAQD

Experiments:
[1] = target: K+ exchange antiporter 3 (KEA3), native KEA3.2 isoform (Arabidopsis thaliana (endogenous in Col-0)); experiment: native gel or EMSA; Blue Native PAGE of solubilized thylakoids; gel slices with the KEA3 high molecular weight complexes excised and analysed by LC-MS/MS for proteins with the same distribution as KEA3
[2] = target: KEA3.2-GFP (Arabidopsis thaliana) (UniProt Q9M0Z3); experiment: co-IP; GFP trap on solubilized thylakoids of 2xKEA3.2 and 2xKEA3.3, Col-0 as control, pellets probed by immunoblot

- binding [1]: no binding
B1: thylakoid membrane insertase Alb3 (protein, UniProt Q8LBP4 57-462)
chain: SLNEIPPFHGLDSSVDIGAIFTRAESLLYTIADAAVVGADSVVTTDSSAVQKSGGWFGFISDAMELVLKILKDGLSAVHVPYAYGFAIILLTIIVKAATYPLTKQQVESTLAMQNLQPKIKAIQQRYAGNQERIQLETSRLYKQAGVNPLAGCLPTLATIPVWIGLYQALSNVANEGLFTEGFFWIPSLGGPTSIAARQSGSGISWLFPFVDGHPPLGWYDTVAYLVLPVLLIASQYVSMEIMKPPQTDDPAQKNTLLVFKFLPLMIGYFALSVPSGLSIYWLTNNVLSTAQQVYLRKLGGAKPNMDENASKIISAGRAKRSIAQPDDAGERFRQLKEQEKRSKKNKAVAKDTVELVEESQSESEEGSDDEEEEAREGALASSTTSKPLPEVGQRRSKRSKRKRTV

- binding [2]: no binding
B2: PsbS (protein, UniProt Q9XF91 60-265)
chain: AAPKKVEKPKSKVEDGIFGTSGGIGFTKANELFVGRVAMIGFAASLLGEALTGKGILAQLNLETGIPIYEAEPLLLFFILFTLLGAIGALGDRGKFVDDPPTGLEKAVIPPGKNVRSALGLKEQGPLFGFTKANELFVGRLAQLGIAFSLIGEIITGKGALAQLNIETGIPIQDIEPLVLLNVAFFFFAAINPGNGKFITDDGEES
